No constants are given. Whether binding was seen depends on the method and setting. Some entries that bind do so weakly or less than the wild type.

This assay has as its target T1, H6NA3 (UniProt P06731 35-144; P06731 499-590, limits assumed).
T1 construct: domain: N domain;domain: A3 domain; recombinant truncated target
T1 sequence: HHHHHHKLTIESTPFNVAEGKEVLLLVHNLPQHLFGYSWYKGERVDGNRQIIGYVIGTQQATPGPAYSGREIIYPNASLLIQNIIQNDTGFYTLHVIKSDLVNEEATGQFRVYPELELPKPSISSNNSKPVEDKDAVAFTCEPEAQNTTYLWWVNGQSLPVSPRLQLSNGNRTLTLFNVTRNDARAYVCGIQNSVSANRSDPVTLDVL
Put plainly: phage ELISA on NA3. Background: ELISA stands for enzyme-linked immunosorbent assay.

B1: 315A-21-A12 (peptide)
peptide: DWVCEFDKLQWVCNVL
Regarding B1, the binding result is on record as “binds”.

B2: 304A-13-C01 (peptide)
peptide: DWVCEIDKGQWTCNPL
For the molecule B2, the binding result is “binds”.

B3: 304A-11-C09 (peptide)
peptide: DWMCNLFKNQWFCDQI
Consider B3, for which the binding entry is recorded as “binds”.

B4: 315A-20-C09 (peptide)
peptide: DWVCNLFKNQWFCDVV
As for B4, the binding entry is on record as “binds”.

B5: 315A-21-A06 (peptide)
peptide: DWICNLFKNQWFCDAW
Regarding B5, the binding result was “binds”.

B6: 315A-20-G10 (peptide)
peptide: DWVCNLFKNQWFCDVM
As to B6, the binding entry is “binds”.

B7: 315A-20-H07 (peptide)
peptide: DWMCNLFKNQWFCDVQ
B7: the binding entry is recorded as “binds”.

B8: 315A-20-D07 (peptide)
peptide: DWVCELLKNQWFCNVL
For the molecule B8, the binding entry is reported as “binds”.

B9: 315A-17-G08 (peptide)
peptide: DWVCEFIKSQWFCNVL
Consider B9, for which the binding entry is “binds”.

B10: 304A-11-A12 (peptide)
peptide: DWICNLFKNQWFCDMA
B10: the binding result is listed as “binds”.

B11: 315A-17-B02 (peptide)
peptide: DWVCEWLKMQWFCNAL
For the molecule B11, the binding result was “binds”.

B12: 304A-12-A05 (peptide)
peptide: DWVCNLFKNQWFCDVL
As to B12, the binding entry is reported as “binds”.

B13: 315A-20-H06 (peptide)
peptide: DWICNLFKNQWFCDQL
For the molecule B13, the binding entry was “binds”.

B14: 315A-20-D06 (peptide)
peptide: DWVCEWLKNQWWCNVL
B14: the binding result is “binds”.

B15: 304A-11-A11 (peptide)
peptide: DWICNLFKNQWFCDIR
As for B15, the binding entry is on record as “binds”.

B16: 304A-12-G12 (peptide)
peptide: DWVCNLFKNQWFCDVW
Take B16: the binding result is listed as “binds”.

B17: 315A-18-B02 (peptide)
peptide: DWVCEWLKHQWFCNAL
B17: the binding entry was “binds”.

B18: 304A-12-F05 (peptide)
peptide: DWVCEWLKMQWACNML
For the molecule B18, the binding entry was “binds”.

B19: 304A-12-D09 (peptide)
peptide: DWVCEMFKAQWFCNAL
As for B19, the binding entry was “binds”.

B20: 315A-16-C04 (peptide)
peptide: DWVCEFSKVQWYCNPL
On to B20, for which the binding result is listed as “binds”.

B21: 304A-11-E04 (peptide)
peptide: DWICNLFKNQWFCDQM
On to B21, for which the binding result is on record as “binds”.

B22: 304A-11-H07 (peptide)
peptide: DWVCNLFKNQWFCDVM
B22: the binding entry was “binds”.

B23: 315A-17-B01 (peptide)
peptide: DWVCEWLKMQWACNIL
Turning to B23, the binding result is on record as “binds”.

B24: 315A-20-B09 (peptide)
peptide: DWVCEFIKDQWYCDLA
As to B24, the binding entry is listed as “binds”.

B25: 315A-17-F04 (peptide)
peptide: DWVCEWLKSQWFCNSL
As for B25, the binding result is listed as “binds”.

B26: 315A-20-B08 (peptide)
peptide: DWVCEWLKMQWACNIL
As for B26, the binding result is recorded as “binds”.

B27: 315A-20-B07 (peptide)
peptide: DWICNLFKNQWFCDIR
Turning to B27, the binding entry is “binds”.

B28: 315A-17-B12 (peptide)
peptide: DWVCEWLKPQWYCNSL
Regarding B28, the binding result is given as “binds”.

B29: 315A-18-E02 (peptide)
peptide: DWVCEFFKDQWFCNIL
B29: the binding entry is “binds”.

B30: 304A-12-E01 (peptide)
peptide: DWVCEFLKMQWACNVL
In the case of B30, the binding entry was “binds”.

B31: 315A-22-B06 (peptide)
peptide: DWVCEWFKPQWICNLL
Take B31: the binding result is on record as “binds”.

B32: 315A-22-D06 (peptide)
peptide: DWVCEIVKNQWHCNVL
B32: the binding entry is reported as “binds”.

B33: 315A-20-C10 (peptide)
peptide: DWVCEWLKMQWACNVL
With B33, the binding result is listed as “binds”.

B34: 315A-17-E12 (peptide)
peptide: DWVCNLFKNQWFCDLS
With B34, the binding entry is “binds”.

B35: 304A-11-F02 (peptide)
peptide: DWVCNLFKNQWFCDLM
Regarding B35, the binding result was “binds”.

B36: 315A-17-B05 (peptide)
peptide: DWVCEWLKMQWACNVL
B36: the binding result was “binds”.

B37: 315A-19-A10 (peptide)
peptide: DWVCEYVKSQWSCNPL
In the case of B37, the binding entry was “binds”.

B38: 304A-11-C02 (peptide)
peptide: DWMCNLFKNQWFCDVV
Turning to B38, the binding result was “binds”.

B39: 315A-18-E04 (peptide)
peptide: DWVCEFLKMQWACNVL
Regarding B39, the binding entry is recorded as “binds”.

B40: 304A-12-C09 (peptide)
peptide: DWVCDFFFNQWTCNLL
On to B40, for which the binding result is on record as “binds”.

B41: 304A-11-H11 (peptide)
peptide: DWICNLFKNQWFCDAI
For B41, the binding entry is recorded as “binds”.

B42: 304A-12-A02 (peptide)
peptide: DWVCNLFKNQWFCNVM
In the case of B42, the binding result is “binds”.

B43: 315A-20-H09 (peptide)
peptide: DWVCEFDKGQWNCNIL
As to B43, the binding result is “binds”.

B44: 315A-17-A06 (peptide)
peptide: DWVCEYFKNQWLCNIL
B44: the binding result is “binds”.

B45: 315A-20-A06 (peptide)
peptide: DWVCNLFKNQWFCNVW
For B45, the binding entry is given as “binds”.

B46: 304A-11-H10 (peptide)
peptide: IWDCNLFKNQWFCPAP
Consider B46, for which the binding entry was “binds”.

B47: 304A-12-E09 (peptide)
peptide: DWICNLFKNQWFCDAW
In the case of B47, the binding entry is recorded as “binds”.

B48: 304A-12-H02 (peptide)
peptide: AWPCNLFKNQWFCPPQ
Turning to B48, the binding result is reported as “binds”.

B49: 315A-20-G12 (peptide)
peptide: DWVCEWFKAQWFCNML
Turning to B49, the binding result is listed as “binds”.

B50: 304A-11-D06 (peptide)
peptide: NWICNLFKNQWFCDQE
For the molecule B50, the binding entry is “binds”.

B51: 315A-18-E01 (peptide)
peptide: DWVCEIVKNQWICNPL
For B51, the binding result is “binds”.

B52: 315A-20-A12 (peptide)
peptide: DWVCNLFKNQWFCDVH
Consider B52, for which the binding result is “binds”.

B53: 304A-12-C05 (peptide)
peptide: DWVCNLFKNQWFCDKW
As for B53, the binding entry is recorded as “binds”.

B54: 315A-23-F10 (peptide)
peptide: DWVCEFEKGQWTCNVL
Turning to B54, the binding result is recorded as “binds”.

B55: 315A-22-E12 (peptide)
peptide: DWVCEWGKNQWTCNPL
For the molecule B55, the binding result is “binds”.

B56: 304A-11-B07 (peptide)
peptide: DWICNLFKNQWFCQVK
B56: the binding result is “binds”.

B57: 315A-21-E07 (peptide)
peptide: DWVCNLFKNQWFCDQM
Take B57: the binding entry was “binds”.

B58: 315A-21-H09 (peptide)
peptide: DWVCEWLKMQWACNML
Consider B58, for which the binding result is “binds”.

B59: 315A-20-F11 (peptide)
peptide: DWVCNLFKNQWFCNVL
Take B59: the binding result is listed as “binds”.

B60: 304A-11-G11 (peptide)
peptide: DWMCNLFKNQWFCDVV
For the molecule B60, the binding entry is given as “binds”.

B61: 304A-11-A02 (peptide)
peptide: DWMCNLFKNQWFCDLM
Regarding B61, the binding result was “binds”.

B62: 315A-21-F07 (peptide)
peptide: DWVCEFFKSQWYCNIL
For the molecule B62, the binding result was “binds”.

B63: 315A-17-B06 (peptide)
peptide: DWVCEWLKMQWACNML
On to B63, for which the binding entry is listed as “binds”.
